The text below walks through data of US6613957.

Chains of the proteins cited; added tags and fusions are not shown. Residues count along the entry.
UniProt P02088, residues 2-147: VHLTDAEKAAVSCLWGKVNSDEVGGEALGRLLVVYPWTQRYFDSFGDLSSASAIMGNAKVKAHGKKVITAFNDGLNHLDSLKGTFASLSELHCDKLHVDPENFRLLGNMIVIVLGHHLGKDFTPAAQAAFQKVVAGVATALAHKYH
UniProt P01942, residues 2-142: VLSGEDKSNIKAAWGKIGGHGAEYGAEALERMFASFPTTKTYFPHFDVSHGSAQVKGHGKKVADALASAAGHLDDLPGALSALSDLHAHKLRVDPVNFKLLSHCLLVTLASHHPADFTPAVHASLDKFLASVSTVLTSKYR
UniProt P69905, residues 2-142: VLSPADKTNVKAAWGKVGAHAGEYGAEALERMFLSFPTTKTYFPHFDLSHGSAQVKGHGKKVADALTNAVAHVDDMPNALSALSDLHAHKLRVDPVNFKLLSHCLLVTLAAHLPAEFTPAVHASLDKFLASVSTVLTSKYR

No constants are given. Whether binding was seen depends on the method and setting. Some binding calls cover weakened binding; strength is not graded here.

The assay has as its target mouse β-globin polypeptide (endogenous) (mouse) (UniProt P02088). Description: nondenaturing isoelectric focusing of transgenic mouse hemolysate; band excised and its chains identified on a denaturing cellulose acetate strip.

As for “mouse α-globin polypeptide (endogenous) (from UniProt P01942 2-142)”, the binding result is “binds”.

For the substance “human α-globin polypeptide (product of the human α1-globin transgene) (from UniProt P69905 2-142)”, the binding result is on record as “binds”.
